The list is a part of this screen's results and no random one: it gathers some chemical classes. Other doses and runs of a compound may be missing. T/C is the treated group as % of the vehicle group. Schedule codes are those of the source, read here as Q, the interval in days (D) or hours (H), X, the number of doses. Some T/C values are marked as having no survivor count here; that says nothing about deaths at the dose.
Test system: HT29 intrarenal xenograft, nude mice, tumor weight change
Assay: NCI In Vivo Anticancer Drug Screen. Data for tumor model HT29;CX-1 Human Adenocarcinoma (MER+) (intrarenal inoculation) in NU/NU BALB/C (nude) mice
Conditions: T/C endpoint: mean tumor weight change, schedule: Q04DX004 (sc), vehicle: saline, evaluated on day 15, higher T/C = larger tumour
Method: The antitumor activity of compounds was measured in mice bearing transplantable tumors. Survival or tumor size were measured and the results are expressed as the measurement made in the treated group (T) divided by the measurement made in the vehicle treated control group (C). The tumor model used in this assay is HT29;CX-1 Human Adenocarcinoma (MER+) (intrarenal inoculation) in NU/NU BALB/C (nude) mice

## CC(=O)OC[C@]12C[C@H](OC(=O)CC(C)C)C(C)=C[C@H]1O[C@@H]1[C@H](O)[C@@H](O)[C@@]2(C)[C@@]12CO2
dose: 1.0 mg/kg/injection
  T/C: 103 % of control [survivor count not shown]
dose: 2.0 mg/kg/injection
  T/C: 71 % of control [survivor count not shown]
dose: 4.0 mg/kg/injection
  T/C: 78 % of control [survivor count not shown]

Reference: PubChem BioAssay AID208 (DTP/NCI, 2004)
